Test results published in patent US20250084044A1, “PROTOPORPHYRINOGEN OXIDASE INHIBITORS” (Enko Chem, Inc., priority 2022, published 2025).
Like-named read-outs stand apart in the source and are kept apart here. Some of these results come from one statement about several compounds together.

Target: T1, Amaranthus tuberculantum Protoporphyrinogen Oxidase (AmPPO) (Amaranthus tuberculatus, UniProt Q0NZW9)
T1 construct: fused on or other part: C-terminal His tag (pET28b vector)
T1 sequence (Q0NZW9 1-534): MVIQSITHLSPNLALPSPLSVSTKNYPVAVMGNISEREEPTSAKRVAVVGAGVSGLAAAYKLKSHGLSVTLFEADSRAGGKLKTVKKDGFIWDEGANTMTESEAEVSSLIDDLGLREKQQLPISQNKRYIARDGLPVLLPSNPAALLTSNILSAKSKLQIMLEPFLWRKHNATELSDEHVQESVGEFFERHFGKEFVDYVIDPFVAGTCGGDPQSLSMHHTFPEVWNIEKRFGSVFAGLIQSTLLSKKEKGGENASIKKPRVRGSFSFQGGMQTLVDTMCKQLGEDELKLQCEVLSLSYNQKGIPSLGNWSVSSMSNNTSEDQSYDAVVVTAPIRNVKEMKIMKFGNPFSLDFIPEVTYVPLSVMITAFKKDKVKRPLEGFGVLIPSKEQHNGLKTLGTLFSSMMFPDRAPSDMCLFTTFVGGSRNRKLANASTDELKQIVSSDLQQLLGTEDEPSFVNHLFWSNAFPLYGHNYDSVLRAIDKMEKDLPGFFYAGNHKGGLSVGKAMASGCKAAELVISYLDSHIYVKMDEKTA
Experiment: PPO in vitro assay (AmPPO)
Assay type: biochemical

Row | SMILES | IC50 | IC50 (Example 17b)
1 | NC(=O)CN1C(=O)C(F)(F)Oc2cc(F)c(-c3c(F)c(F)c(F)c(F)c3F)cc21 [Compound 83, 2-(2,2,7-trifluoro-3-oxo-6-(perfluorophenyl)-2,3-dihydro-4H-benzo[b][1,4]oxazin-4-yl)acetamide] | < 100 nM | < 100 nM
2 | CC(C)N(C)S(=O)(=O)NC(=O)CN1C(=O)C(F)(F)Oc2cc(F)c(-c3c(F)c(F)c(F)c(F)c3F)cc21 [Compound 14, N-(N-isopropyl-N-methylsulfamoyl)-2-(2,2,7-trifluoro-3-oxo-6-(perfluorophenyl)-2,3-dihydro-4H-benzo[b][1,4]oxazin-4-yl)acetamide] | < 100 nM | < 100 nM
3 | COC(=O)c1cccc(CN2C(=O)C(F)(F)Oc3cc(F)c(-c4c(F)c(F)c(F)c(F)c4F)cc32)c1F [Compound 53, methyl 2-fluoro-3-((2,2,7-trifluoro-3-oxo-6-(perfluorophenyl)-2,3-dihydro-4H-benzo[b][1,4]oxazin-4-yl)methyl)benzoate] | < 100 nM | < 100 nM
4 | COC(=O)c1ccccc1CN1C(=O)C(F)(F)Oc2cc(F)c(-c3c(F)c(F)c(F)c(F)c3F)cc21 [Compound 4, methyl 2-((2,2,7-trifluoro-3-oxo-6-(perfluorophenyl)-2,3-dihydro-4H-benzo[b][1,4]oxazin-4-yl)methyl)benzoate] | < 100 nM | < 100 nM
5 | COc1c(F)c(F)c(-c2cc3c(cc2F)OC(F)(F)C(=O)N3[C@H](C)C(=O)O)c(F)c1F [Compound 114, (R)-2-(2,2,7-trifluoro-3-oxo-6-(2,3,5,6-tetrafluoro-4-methoxyphenyl)-2,3-dihydro-4H-benzo[b][1,4]oxazin-4-yl)propanoic acid] | < 100 nM | < 100 nM
6 | COC(=O)[C@H](CC(C)C)N1C(=O)C(F)(F)Oc2cc(F)c(-c3c(F)c(F)c(F)c(F)c3F)cc21 [Compound 122, methyl (S)-4-methyl-2-(2,2,7-trifluoro-3-oxo-6-(perfluorophenyl)-2,3-dihydro-4H-benzo[b][1,4]oxazin-4-yl)pentanoate] | < 100 nM | < 100 nM
7 | C[C@@H](C(=O)O)N1C(=O)COc2ccc(-c3c(F)c(F)c(F)c(F)c3F)cc21 [Compound 43, (S)-2-(3-oxo-6-(perfluorophenyl)-2,3-dihydro-4H-benzo[b][1,4]oxazin-4-yl)propanoic acid] | – | < 1000 nM
8 | CC(C)[C@@H](C(=O)O)N1C(=O)C(F)(F)Oc2cc(F)c(-c3c(F)c(F)c(F)c(F)c3F)cc21 [Compound 150, (S)-3-methyl-2-(2,2,7-trifluoro-3-oxo-6-(perfluorophenyl)-2,3-dihydro-4H-benzo[b][1,4]oxazin-4-yl)butanoic acid] | – | < 100 nM
9 | COC(=O)C(C)(C)CCN1C(=O)C(F)(F)Oc2cc(F)c(-c3c(F)c(F)c(F)c(F)c3F)cc21 [Compound 140, methyl 2,2-dimethyl-4-(2,2,7-trifluoro-3-oxo-6-(perfluorophenyl)-2,3-dihydro-4H-benzo[b][1,4]oxazin-4-yl)butanoate] | < 100 nM | < 100 nM
10 | CCN(CC)C(=O)c1ccc(Br)cc1CN1C(=O)C(F)(F)Oc2cc(F)c(-c3c(F)c(F)c(F)c(F)c3F)cc21 [Compound 3, 4-bromo-N,N-diethyl-2-((2,2,7-trifluoro-3-oxo-6-(perfluorophenyl)-2,3-dihydro-4H-benzo[b][1,4]oxazin-4-yl)methyl)benzamide] | < 100 nM | < 100 nM
11 | O=C(O)Cc1ccc(CN2C(=O)C(F)(F)Oc3cc(F)c(-c4c(F)c(F)c(F)c(F)c4F)cc32)cc1 [Compound 157, 2-(4-((2,2,7-trifluoro-3-oxo-6-(perfluorophenyl)-2,3-dihydro-4H-benzo[b][1,4]oxazin-4-yl)methyl)phenyl)acetic acid] | – | < 100 nM
12 | O=C(O)C[C@H]1C[C@H](CN2C(=O)C(F)(F)Oc3cc(F)c(-c4c(F)c(F)c(F)c(F)c4F)cc32)C1 [Compound 138, 2-((1 r,3r)-3-((2,2,7-trifluoro-3-oxo-6-(perfluorophenyl)-2,3-dihydro-4H-benzo[b][1,4]oxazin-4-yl)methyl)cyclobutyl)acetic acid] | < 100 nM | < 100 nM
13 | O=C(CN1C(=O)C(F)(F)Oc2cc(F)c(-c3c(F)c(F)c(F)c(F)c3F)cc21)NCc1ccccc1 [Compound 99, N-benzyl-2-(2,2,7-trifluoro-3-oxo-6-(perfluorophenyl)-2,3-dihydro-4H-benzo[b][1,4]oxazin-4-yl)acetamide] | < 100 nM | < 100 nM
14 | O=C(O)[C@@H]1CSCCN1C(=O)CN1C(=O)C(F)(F)Oc2cc(F)c(-c3c(F)c(F)c(F)c(F)c3F)cc21 [Compound 108, (R)-4-(2-(2,2,7-trifluoro-3-oxo-6-(perfluorophenyl)-2,3-dihydro-4H-benzo[b][1,4]oxazin-4-yl)acetyl)thiomorpholine-3-carboxylic acid] | < 100 nM | < 100 nM
15 | CC(C)C[C@H](C(=O)O)N1C(=O)C(F)(F)Oc2cc(F)c(-c3c(F)c(F)c(F)c(F)c3F)cc21 [Compound 125, (R)-4-methyl-2-(2,2,7-trifluoro-3-oxo-6-(perfluorophenyl)-2,3-dihydro-4H-benzo[b][1,4]oxazin-4-yl)pentanoic acid] | < 100 nM | < 100 nM
16 | CN(Cc1ccccc1)C(=O)CN1C(=O)C(F)(F)Oc2cc(F)c(-c3c(F)c(F)c(F)c(F)c3F)cc21 [Compound 96, N-benzyl-N-methyl-2-(2,2,7-trifluoro-3-oxo-6-(perfluorophenyl)-2,3-dihydro-4H-benzo[b][1,4]oxazin-4-yl)acetamide] | < 100 nM | < 100 nM
17 | COC(=O)CCNC(=O)[C@@H](C)N1C(=O)C(F)(F)Oc2cc(F)c(-c3c(F)c(F)c(F)c(F)c3F)cc21 [Compound 131, methyl (R)-3-(2-(2,2,7-trifluoro-3-oxo-6-(perfluorophenyl)-2,3-dihydro-4H-benzo[b][1,4]oxazin-4-yl)propanamido)propanoate] | < 100 nM | < 100 nM
18 | COC(=O)CCN1C(=O)C(F)(F)Oc2cc(F)c(-c3c(F)c(F)c(F)c(F)c3F)cc21 [Compound 45, methyl 3-(2,2,7-trifluoro-3-oxo-6-(perfluorophenyl)-2,3-dihydro-4H-benzo[b][1,4]oxazin-4-yl)propanoate] | < 100 nM | < 100 nM
19 | CN(C)NC(=O)CN1C(=O)C(F)(F)Oc2cc(F)c(-c3c(F)c(F)c(F)c(F)c3F)cc21 [Compound 57, N,N-dimethyl-2-(2,2,7-trifluoro-3-oxo-6-(perfluorophenyl)-2,3-dihydro-4H-benzo[b][1,4]oxazin-4-yl)acetohydrazide] | < 100 nM | < 100 nM
20 | CC(=O)N1CCN(C(=O)CN2C(=O)C(F)(F)Oc3cc(F)c(-c4c(F)c(F)c(F)c(F)c4F)cc32)[C@H](C(=O)O)C1 [Compound 147, (S)-4-acetyl-1-(2-(2,2,7-trifluoro-3-oxo-6-(perfluorophenyl)-2,3-dihydro-4H-benzo[b][1,4]oxazin-4-yl)acetyl)piperazine-2-carboxylic acid] | < 100 nM | < 100 nM
21 | COC(=O)[C@@H](C)N1C(=O)C(F)(F)Oc2cc(C)c(-c3c(F)c(F)c(F)c(F)c3F)cc21 [Compound 182, methyl (R)-2-(2,2-difluoro-7-methyl-3-oxo-6-(perfluorophenyl)-2,3-dihydro-4H-benzo[b][1,4]oxazin-4-yl)propanoate] | – | < 100 nM
22 | CCC[C@H](C(=O)O)N1C(=O)C(F)(F)Oc2cc(F)c(-c3c(F)c(F)c(F)c(F)c3F)cc21 [Compound 118, (R)-2-(2,2,7-trifluoro-3-oxo-6-(perfluorophenyl)-2,3-dihydro-4H-benzo[b][1,4]oxazin-4-yl)pentanoic acid] | < 100 nM | < 100 nM
23 | COC(=O)CCN(C)C(=O)[C@H](C)N1C(=O)C(F)(F)Oc2cc(F)c(-c3c(F)c(F)c(F)c(F)c3F)cc21 [Compound 132, methyl (S)-3-(N-methyl-2-(2,2,7-trifluoro-3-oxo-6-(perfluorophenyl)-2,3-dihydro-4H-benzo[b][1,4]oxazin-4-yl)propanamido)propanoate] | < 100 nM | < 100 nM
24 | O=C(O)CCCN1C(=O)C(F)(F)Oc2cc(F)c(-c3c(F)c(F)c(F)c(F)c3F)cc21 [Compound 17, 4-(2,2,7-trifluoro-3-oxo-6-(perfluorophenyl)-2,3-dihydro-4H-benzo[b][1,4]oxazin-4-yl)butanoic acid] | < 100 nM | < 100 nM
25 | COC(=O)[C@@H](CC(C)C)N1C(=O)C(F)(F)Oc2cc(F)c(-c3c(F)c(F)c(F)c(F)c3F)cc21 [Compound 123, methyl (R)-4-methyl-2-(2,2,7-trifluoro-3-oxo-6-(perfluorophenyl)-2,3-dihydro-4H-benzo[b][1,4]oxazin-4-yl)pentanoate] | < 100 nM | < 100 nM
26 | COC(=O)C(C)(C)N1C(=O)C(F)(F)Oc2cc(F)c(-c3c(F)c(F)c(F)c(F)c3F)cc21 [Compound 18, methyl-2-methyl-2-(2,2,7-trifluoro-3-oxo-6-(perfluorophenyl)-2,3-dihydro-4H-benzo[b][1,4]oxazin-4-yl)propanoate] | < 100 nM | < 100 nM
27 | COC(=O)C1CN(C(=O)CN2C(=O)C(F)(F)Oc3cc(F)c(-c4c(F)cc(F)c(F)c4F)cc32)C1 [Compound 164, methyl 1-(2-(2,2,7-trifluoro-3-oxo-6-(2,3,4,6-tetrafluorophenyl)-2,3-dihydro-4H-benzo[b][1,4]oxazin-4-yl)acetyl)azetidine-3-carboxylate] | – | < 100 nM
